Results published in patent publication US20110152352A1.
Results are given in words; binding and its absence hold for the method and conditions named. For some assays here: Binding seen in cells or lysates may run through a third protein. Some results given as binding are weak or reduced against the parent protein; the word gives no strength.

The chains behind the UniProt entries cited, without tags or fusion partners. Where a name states a change or a piece, a line headed by the entry shows the natural chain unless it says otherwise. Residues count along the entry.
UniProt P17844: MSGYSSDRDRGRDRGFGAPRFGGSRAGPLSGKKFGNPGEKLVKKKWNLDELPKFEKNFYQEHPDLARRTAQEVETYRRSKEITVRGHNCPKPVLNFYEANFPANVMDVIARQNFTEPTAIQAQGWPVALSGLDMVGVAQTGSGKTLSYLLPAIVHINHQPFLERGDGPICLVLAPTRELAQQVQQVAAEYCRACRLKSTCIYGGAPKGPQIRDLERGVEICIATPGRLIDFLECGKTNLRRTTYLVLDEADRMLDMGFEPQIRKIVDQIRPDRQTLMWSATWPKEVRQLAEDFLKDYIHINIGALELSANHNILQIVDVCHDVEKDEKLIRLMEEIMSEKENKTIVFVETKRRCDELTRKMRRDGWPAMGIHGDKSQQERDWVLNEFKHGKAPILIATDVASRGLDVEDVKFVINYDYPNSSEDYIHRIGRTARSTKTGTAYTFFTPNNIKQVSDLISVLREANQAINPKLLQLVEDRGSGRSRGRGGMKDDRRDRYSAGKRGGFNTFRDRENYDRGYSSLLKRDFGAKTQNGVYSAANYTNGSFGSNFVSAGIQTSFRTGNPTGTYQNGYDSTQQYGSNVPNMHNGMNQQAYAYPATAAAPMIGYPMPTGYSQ
UniProt Q15797: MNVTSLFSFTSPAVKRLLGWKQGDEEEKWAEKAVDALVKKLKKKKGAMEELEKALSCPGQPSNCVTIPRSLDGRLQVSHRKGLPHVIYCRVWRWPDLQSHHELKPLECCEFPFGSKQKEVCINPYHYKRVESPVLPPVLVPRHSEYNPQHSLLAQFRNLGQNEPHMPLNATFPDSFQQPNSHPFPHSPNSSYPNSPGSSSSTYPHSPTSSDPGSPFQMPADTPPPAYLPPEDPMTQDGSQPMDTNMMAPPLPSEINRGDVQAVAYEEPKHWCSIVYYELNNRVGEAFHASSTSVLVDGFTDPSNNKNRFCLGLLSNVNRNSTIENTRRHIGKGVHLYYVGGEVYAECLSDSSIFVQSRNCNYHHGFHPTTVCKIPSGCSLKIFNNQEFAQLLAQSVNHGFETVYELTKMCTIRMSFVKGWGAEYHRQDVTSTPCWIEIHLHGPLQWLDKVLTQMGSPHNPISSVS
UniProt Q99717, residues 2-465: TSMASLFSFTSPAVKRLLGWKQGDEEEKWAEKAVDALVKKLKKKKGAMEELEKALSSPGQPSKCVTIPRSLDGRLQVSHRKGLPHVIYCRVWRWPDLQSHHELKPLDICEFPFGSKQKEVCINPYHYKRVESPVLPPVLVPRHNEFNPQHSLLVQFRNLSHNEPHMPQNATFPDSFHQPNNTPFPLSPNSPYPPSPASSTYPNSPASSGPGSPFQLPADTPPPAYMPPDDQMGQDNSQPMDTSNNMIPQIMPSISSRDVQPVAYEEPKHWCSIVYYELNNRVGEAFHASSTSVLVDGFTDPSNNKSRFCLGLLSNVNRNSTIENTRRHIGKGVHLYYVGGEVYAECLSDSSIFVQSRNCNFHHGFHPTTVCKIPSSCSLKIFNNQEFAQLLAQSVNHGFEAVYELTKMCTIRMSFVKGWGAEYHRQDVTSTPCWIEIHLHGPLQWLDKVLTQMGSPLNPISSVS

How the values were obtained:
[1] = target: RNA helicase p68 (human p68 cDNA construct, expressed in transfected Cos7 cells) (human) (UniProt P17844); experiment: GST pull-down from nuclear extracts of p68-transfected Cos7 cells, immunoblot with anti-p68
[2] = target: T1, DGCR8 (UniProt Q8WYQ5); experiment: GST-Smad1 interaction assay, unpublished observation, conditions not described
T1 sequence (looked up): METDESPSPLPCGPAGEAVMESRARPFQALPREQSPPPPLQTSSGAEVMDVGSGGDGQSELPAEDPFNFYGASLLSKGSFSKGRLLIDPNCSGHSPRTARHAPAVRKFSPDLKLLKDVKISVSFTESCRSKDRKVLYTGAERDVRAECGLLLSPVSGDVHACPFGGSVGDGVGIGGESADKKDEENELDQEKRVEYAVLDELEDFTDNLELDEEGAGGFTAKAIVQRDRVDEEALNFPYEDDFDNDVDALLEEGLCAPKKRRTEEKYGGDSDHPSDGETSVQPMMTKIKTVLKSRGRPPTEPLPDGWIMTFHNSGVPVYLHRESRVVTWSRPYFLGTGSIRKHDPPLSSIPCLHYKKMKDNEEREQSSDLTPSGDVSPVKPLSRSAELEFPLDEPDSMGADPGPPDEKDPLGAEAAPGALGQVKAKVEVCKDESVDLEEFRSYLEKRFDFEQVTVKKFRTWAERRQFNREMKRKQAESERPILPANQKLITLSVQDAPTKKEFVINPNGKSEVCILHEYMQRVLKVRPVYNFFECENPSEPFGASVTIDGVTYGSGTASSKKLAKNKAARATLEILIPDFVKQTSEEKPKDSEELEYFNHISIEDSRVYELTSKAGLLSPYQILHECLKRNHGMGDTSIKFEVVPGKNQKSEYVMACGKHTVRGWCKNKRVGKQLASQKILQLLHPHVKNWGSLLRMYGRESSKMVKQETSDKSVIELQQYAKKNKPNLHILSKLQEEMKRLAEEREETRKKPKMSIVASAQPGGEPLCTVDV

[3] = target: RNA helicase p68 (human p68 cDNA construct, expressed in transfected Cos7 cells) (human) (UniProt P17844); experiment: GST pull-down from RNase A-treated (250 µg/ml) nuclear extracts of p68-transfected Cos7 cells, immunoblot with anti-p68
[4] = target: RNA helicase p68 (human p68 cDNA construct, expressed in transfected Cos7 cells) (human) (UniProt P17844); experiment: GST pull-down from nuclear extracts of p68-transfected Cos7 cells
[5] = target: p68 (endogenous, human PASMC nuclear extracts) (human) (UniProt P17844); experiment: co-immunoprecipitation with anti-p68 from nuclear extracts of BMP4-treated PASMCs, immunoblot with anti-Smad1/5

Substance | binding [1] | binding [2] | binding [3] | binding [4] | binding [5]
GST-Smad1 (MH2 domain) fusion protein (from UniProt Q15797 271-465) | binds |  |  |  | 
GST-Smad1 full length (FL) fusion protein (from UniProt P08515 1-218; Q15797 1-465) | binds | binds | binds | binds | 
GST-Smad3(FL) fusion protein (from UniProt P08515 1-218; P84022 2-425) | binds |  |  | binds | 
GST-Smad5 full length fusion protein (from UniProt Q99717 2-465) | binds |  | binds | binds | 
Smad1 (endogenous, human PASMC nuclear extracts, detected with anti-Smad1/5 antibody) (from UniProt Q15797 1-465) |  |  |  |  | binds
